Source: paper PMC3197488
Results are given in words; binding and its absence hold for the method and conditions named. Some entries that bind do so weakly or less than the wild type.

Chains of the proteins cited; added tags and fusions are not shown. Lines headed by an entry give the natural chain unless they say otherwise; changes in a name come on top.
UniProt P0AGE0: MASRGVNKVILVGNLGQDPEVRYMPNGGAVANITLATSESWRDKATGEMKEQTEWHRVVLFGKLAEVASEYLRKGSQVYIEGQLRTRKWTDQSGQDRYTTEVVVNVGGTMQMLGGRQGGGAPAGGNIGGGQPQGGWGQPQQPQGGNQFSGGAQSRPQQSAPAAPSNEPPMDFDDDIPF
UniProt P28905: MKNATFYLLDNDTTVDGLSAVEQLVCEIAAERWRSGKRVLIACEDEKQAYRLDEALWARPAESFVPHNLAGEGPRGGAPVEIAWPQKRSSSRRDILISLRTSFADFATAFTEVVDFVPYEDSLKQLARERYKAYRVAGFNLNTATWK

Columns and labels:
[1] = target: E. coli single-stranded DNA-binding protein, wild type (E. coli) (UniProt P0AGE0); test: AUC; sedimentation velocity; χψ titrated to 0.35 μM cognate SSB without poly(dT), low salt buffer (5 mM NaCl, 5 mM KPi pH 7.4, 0.87 M glycerol, 0.5 mM DTT), 50000 rpm, 20°C, 230 nm; both purified
[2] = target: E. coli single-stranded DNA-binding protein, wild type (E. coli) (UniProt P0AGE0); test: AUC; sedimentation velocity, c(s) distributions of 2.2 µM SSB without or with a nine-fold (EcoSSB+Gly) or seven-fold (EcoSSB wild-type) molar excess of χψ; high salt buffer, 50000 rpm, 20°C, 280 nm; both purified

binding [1]: binds weakly
binding [2]: binds
Substance: E. coli χψ complex (from UniProt P28905 1-147; P28632 1-137)
